Reference: paper PMC6208384 (2018)
The exact form of at least one protein or probe is not confirmed.

Assays:
[1] = tested on: Fab BL3-6; experiment: X-ray crystallography (2.0 A); settings: apo (no fluorophore), Mg2+; recombinant protein; label: 5'-32P (filter binding)
[2] = tested on: Fab BL3-6; experiment: X-ray crystallography (1.8 A); settings: OTB-SO3 bound, Mg2+; recombinant protein; label: 5'-32P (filter binding)

## GGAUGCGCCUUGAAAAGCCUGCGAAACACGCAGCUGGUGAAUGACAGCUAUGGCGCAUCC [DIR2s_GAAACAC RNA]
[1]
  binding result: binds
[2]
  binding result: binds
